The values that follow come from patent publication US20150307625A1 (Bayer, published 2015).

Assay [1] has as its target activated Factor VII. The experiment in a line: direct ELISA, FVIIa coated at 10 ug/ml, Fab at 20 nM, anti-human Fab-HRP, AmplexRed (RFU).
Assay [2] addresses activated Factor IX. The experiment in a line: direct ELISA, antigen coated.
Assay [3] has as its target activated Factor VII. Briefly: direct ELISA, antigen coated.
Assay [4] addresses activated Factor X. Briefly: direct ELISA, antigen coated.
The target in assay [5] is activated Factor X. Briefly: direct ELISA, FXa coated at 10 ug/ml, Fab at 20 nM, anti-human Fab-HRP, AmplexRed (RFU).
The target in assay [6] is activated Factor IX. Briefly: direct ELISA, FIXa coated at 5 ug/ml, Fab at 20 nM, anti-human Fab-HRP, AmplexRed (RFU).
Assay [7] deals with rabbit activated Protein C (rabbit). Briefly: direct ELISA, antigen coated at 1 ug/ml, IgG at 20 nM, anti-human IgG-HRP, AmplexRed (RFU).
The target is the same in assay [8]. Briefly: direct ELISA, IgG at 20 nM.
Assay [9] has the same target. The experiment in a line: direct ELISA, hIgG1.
Assay [10] addresses dog activated Protein C (dog). Briefly: direct ELISA, antigen coated at 1 ug/ml, IgG at 20 nM, anti-human IgG-HRP, AmplexRed (RFU).
Assay [11] concerns the target dog activated Protein C (dog). Briefly: species aPC ELISA.
Assay [12] addresses dog activated Protein C (dog). The experiment in a line: direct ELISA, antigen coated at 100 ng/well, Fab at 20 nM (1 ug/ml), anti-human Fab-HRP, AmplexRed (RFU).
The target in assay [13] is dog activated Protein C (dog). Briefly: direct ELISA, Fab at 20 nM.
Assay [14] addresses dog activated Protein C (dog). The experiment in a line: direct ELISA, IgG at 20 nM.
Assay [15] concerns the target dog activated Protein C (dog). The experiment in a line: direct ELISA, hIgG1.

Changes are numbered by the printed parent chain. Results are given in words; binding and its absence hold for the method and conditions named. For some of these results: Binding can be weak; no strength is given.

B1: T46P19 Fab (Fab, V domains shown)
VH: EVQLLESGGGLVQPGGSLRLSCAASGFTFSGYGMHWVRQAPGKGLEWVSGINWNGGSTGYADSVKGRFTISRDNSKNTLYLQMNSLRAEDTAVYYCARNRATRSGYYYFDSWGQGTLVTVTS
VL: LTQPPSASGTPGQRVTISCTGSSSNIGAGYDVHWYQQLPGTAPKLLIYGNINRPSGVPDRFSGSKSGTSASLAISGLRSEDEADYYCSSYTRSATLVFGGGTKLTVLG
notes: Human Fab (lambda), expressed in E. coli
In the case of B1, the binding entry with activated Factor VII [1], with activated Factor IX [2], in the assay with activated Factor VII [3], with activated Factor X [4], with activated Factor X [5] and with activated Factor IX [6] was “no binding (tested: 20 nM)” throughout.

B2: C22J13 hIgG1 (antibody, V domains shown)
VH: EVQLLESGGGLVQPGGSLRLSCAASGFTFSSNYMSWVRQAPGKGLEWVAVISYDGSNKYYADSVKGRFTISRDNSKNTLYLQMNSLRAEDTAMYYCALTGRSGWMRFPNWFDPWGQGTLVTVTS
VL: QSVLTQPPSASGTPGQRVTISCSGSDSNIGSNAVNWYQQLPGTAPKLLIYDNNKRPSGVPDRFSGSKSGTSASLAISGLRSEDEADYYCSSYTSSNTVVFGGGTKLTVLG
B2: the binding result in [7], in assay [8] and in [9] was “binds” each time.

B3: C22J13 Fab (Fab, V domains shown)
VH: B2 VH
VL: B2 VL
notes: Human Fab (lambda) from a phage library, expressed in E. coli
Turning to B3, the binding entry with activated Factor VII [1], in the assay with activated Factor IX [2], with activated Factor VII [3], with activated Factor X [4], in the assay with activated Factor X [5] and with activated Factor IX [6] was “no binding (tested: 20 nM)” each time.

B4: O3E7 hIgG1 (antibody, V domains shown)
VH: EVQLLESGGGLVQPGGSLRLSCAASGFTFSSYSMNWVRQAPGKGLEWVSAISGSGGSTYYADSVKGRFTISRDNSKNTLYLQMNSLRAEDTAVYYCARDRRVRGIYDAFDMWGQGTLVTVTS
VL: QSVLTQPPSTSGTPGQRVTISCTGSSSNIGAGFDVHWYQQLPGTAPKLLIYGNSNRPSGVPDRFSGSKSGTSASLAISGLRSEDEADYYCATWQDTLTGWMFGGGTKLTVLG
notes: also called O3E7-IgG; 03E7
B4: the binding result in assay [10] is given as “binds”.

B5: R41C17 Fab (Fab, V domains shown)
VH: EVQLLESGGGLVQPGGSLRLSCAASGFTFSNYAMSWVRQSPGKGLEWVAVISYDGREKYYSDSVKGRFTISRDNSKNTLYLQMNSLRAEDTAVYYCARDRGRTFDYWGQGTLVTVTS
VL: LTQPPSASGTPGQRVTISCTGSSSNIGAGYVVHWYQQLPGTAPKLLIYRNNHRPSGVPDRFSGSKSGTSASLAISGLRSEDEADYYCAAWDDSLNGRVFGGGTKLTVLG
notes: Human Fab (lambda), expressed in E. coli; also called R4117
Consider B5, for which the binding result with activated Factor VII [1], with activated Factor IX [2], in the assay with activated Factor VII [3], in the assay with activated Factor X [4], with activated Factor X [5] and with activated Factor IX [6] was “no binding (tested: 20 nM)” in each case.

B6: C7I7 Fab (Fab, V domains shown)
VH: EVQLLESGGGLVQPGGSLRLSCAASGFTFGNHWMTWVRQAPGKGLEWVSGVSWNGSRTHYADSVKGRFTISRDNSKNTLYLQMNSLRAEDTAVYYCALTGRSGWMRFPNWFDPWGQGTLVTVTS
VL: QSVLTQPPSASGTPGQRVTISCTGSSSNIGAGYDVHWYQQLPGTAPKLLIYGNSNRPSGVPDRFSGSKSGTSASLAISGLRSEDEAAYYCSSYVGSDLVVFGGGTKLTVLG
notes: Human Fab (lambda) from a phage library, expressed in E. coli; also called C717
Take B6: the binding result is “no binding (tested: 20 nM)” in the assay with activated Factor VII [1]; “binds” in assay [11]; “binds” in [12]; “no binding (tested: 20 nM)” with activated Factor IX [2]; “no binding (tested: 20 nM)” in the assay with activated Factor VII [3]; “no binding (tested: 20 nM)” with activated Factor X [4]. Also, the binding entry in assay [13] is reported as “binds”; with activated Factor X [5], “no binding (tested: 20 nM)”; with activated Factor IX [6], “no binding (tested: 20 nM)”.

B7: C7A23 hIgG1 (antibody, V domains shown)
VH: B6 VH
VL: QSVLTQPPSASGTPGQRVTISCSGSSSNIGNNYVSWYQQLPGTAPKLLIYRNNQRPSGVPDRFSGSKSGTSASLAISGLRSEDEADYYCQSYDSDLSGPYVLFGGGTKLTVLG
notes: also called C7A23-IgG
Consider B7, for which the binding entry in assay [7], in assay [10], in [8], in assay [14], in [9] and in assay [15] was “binds” in each case.

B8: C7I7 hIgG1 (antibody, V domains shown)
VH: B6 VH
VL: B6 VL
notes: also called C717-IgG
Take B8: the binding entry in assay [7], in assay [10], in assay [8], in assay [14], in assay [9] and in assay [15] was “binds” in each case.

B9: C25K23 IgG1 (antibody, V domains shown)
VH: B6 VH with G30S, N31S, H32Y, T35S, T123S
VL: QSVLTQPPSASGTPGQRVTISCTGSSSNIGAAYDVHWYQQLPGTAPKLLIYGNNKRPSGVPDRFSGSKSGTSASLAISGLRSEDEADYYCQSYDSSLSGSVFGGGTKLTVLG
notes: the claims call them variable regions; also called C25K23 hIgG; C25K23 hIgG1
With B9, the binding entry in [7], in assay [10], in assay [8], in [14], in assay [9] and in assay [15] was “binds” throughout.

B10: C7A23 Fab (Fab, V domains shown)
VH: B6 VH
VL: B7 VL
notes: as for B3
For B10, the binding result with activated Factor VII [1] was “no binding (tested: 20 nM)”; in assay [11], “binds”; in [12], “binds”; with activated Factor IX [2] it was “no binding (tested: 20 nM)”; with activated Factor VII [3], “no binding (tested: 20 nM)”; in the assay with activated Factor X [4] it was “no binding (tested: 20 nM)”. For the same molecule, the binding entry in [13] was “binds”; with activated Factor X [5], “no binding (tested: 20 nM)”; with activated Factor IX [6], “no binding (tested: 20 nM)”.

B11: R41E3 Fab (Fab, V domains shown)
VH: EVQLLESGGGLVQPGGSLRLSCAASGFTFNNYAMTWVRQAPGKGLEWVSGVSWNGSRTHYADSVKGRFTISRDNSKNTLYLQMNSLRAEDTAVYYCARADSSSAGRWAGSLDYWGQGTLVTVTS
VL: LTQPPSASGTPGQRVTISCSGSSSNIGNNAVNWYQQLPGTAPKLLIYSNNQRPSGVPDRFSGSKSGTSASLAISGLRSEDEADYYCSSYTSSSTHVVFGGGTKLTVLG
notes: as for B1
On to B11, for which the binding result with activated Factor VII [1], with activated Factor IX [2], with activated Factor VII [3], in the assay with activated Factor X [4], with activated Factor X [5] and with activated Factor IX [6] was “no binding (tested: 20 nM)” each time.

B12: C26B9 Fab (Fab, V domains shown)
VH: EVQLLESGGGLVQPGGSLRLSCAASGFTFSSYGMHWVRQAPGKGLEWVSVIYSGGSTYYADSVKGRFTISRDNSKNTLYLQMNSLRAEDTAVYYCARMGRAFDIWGQGTLVTVTS
VL: QSVLTQPPSASGTPGQRVTISCSGSSSNIRSNTVNWYQQLPGTAPKLLIYGNSNRPSGVPDRFSGSKSGTSASLAISGLRSEDEADYYCQSYDSSLSGDVVFGGGTKLTVLG
notes: as for B3
Take B12: the binding entry with activated Factor VII [1], in the assay with activated Factor IX [2], in the assay with activated Factor VII [3], with activated Factor X [4], with activated Factor X [5] and with activated Factor IX [6] was “no binding (tested: 20 nM)” in each case.
